Measurements taken from publication PMC3982516.

Target: lysozyme (UniProt P00698)
Assay: aptamer strand-displacement sensor (lysozyme-triggered RCA, fluorescence/TIRFM read-out)
Settings: Klenow, Nb.BbvCI, dNTP and primers present, indirect amplified read-out, circle template is covalently closed, 1x NEBuffer 2, dNTP 0.25 mM each, 37 C, 3 h, commercial protein

## ATCTACGAATTCATCAGGGCTAAAGAGTGCAGAGTTACTTAGAGGCCTCAGCGGTAATGGTGTCTT / CCTCTAAGTAACTCTGAGGATTAGGATTAGGAGGAGGAGGTAGGGCGGCTTCGGATTTTTTTTTTTTGACACCATTACC
  binding result: binds

The exact form of at least one protein or probe is not confirmed. At least one verdict was read from the data and is not stated in words by the source.
